Reference: PubChem BioAssay AID1347076 (National Center for Advancing Translational Sciences (NCATS), 2019)
Screen size: about 400,000 compounds; about 13,000 (3.2%) were called active. The inconclusive results got no clear call from the source; some entries with a clear call stand among them for comparison. Calls come from the whole dose curve; as a rule, active = well fitted cell-killing curve with a large enough effect; inconclusive = small, poorly fitted or top-dose-only effect, or effect the other way; inactive = flat fitted curve, though single readings scatter. Where the call is inconclusive, the potency comes from a doubtful curve fit.

Test: qHTS assay for MDR1-selective chemotherapeutics: Primary screen using the drug-selected MDR subline cells KB-V1; note: nearly all actives have a fitted effect of over 60% in size
Settings: KB-V1 MDR cells viability, CellTiter-Glo, 72 h; activity change, negative = cytotoxicity: at 46.1 µM (top of the series)
In short: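 KB-V1 cells (P-gp-expressing MDR subline of KB-3-1) in phenol-red-free DMEM with 10% FBS were exposed to library compounds over a concentration series for 72 h at 37 degrees C. Viability read by CellTiter-Glo luminescence; concentration-effect curves fitted after normalization.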
% is set by controls: 0 for no effect and ±100 for the full control effect; potency is the fitted concentration of half-maximal effect.

Row | SMILES | Potency | activity change, negative = cytotoxicity
1 | Cc1c(C(=O)N(C)CCOc2ccccc2)oc2c(Cl)cccc12 | active: 20.6 µM | –
2 | Cc1cccc(-n2c(C)nc3c(cnn3-c3ccc(F)cc3)c2=O)c1 | inconclusive: 23.1 µM [cytotoxic, single point] | –
3 | COc1ccccc1CN(Cc1nc2ccccc2c(=O)[nH]1)C(=O)Nc1ccccc1 | inconclusive: 35.5 µM [cytotoxic, single point] | –
4 | Cc1cc(C)n(CC(O)COc2ccc3ccccc3c2)n1 (stereo not drawn) | inconclusive: 16.4 µM [cytotoxic, partial curve] | –
5 | O=C1c2ccccc2C(=O)N1CCCCc1cn(C[C@H]2CC[C@@H]([C@@H]3CC[C@H](Cn4cc(CCCCN5C(=O)c6ccccc6C5=O)nn4)O3)O2)nn1 | inconclusive: 29.1 µM [rising, single point] | –
6 | O=C1C[C@H](NC(=O)OCc2ccccc2)CO1 | inconclusive: 32.6 µM [rising, single point] | –
7 | COc1ccccc1C(=O)NCCSc1c(C)[nH]c2ccccc12 | inconclusive: 18.4 µM [cytotoxic, single point] | –
8 | C/C(=N\NC(=O)C(O)c1ccccc1)c1cccnc1 (stereo not drawn) | inconclusive: 29.1 µM [rising, single point] | –
9 | NS(=O)(=O)c1ccc(CCN2C(=O)/C(=C\c3ccc(Cl)cc3)SC2=S)cc1 | active: 18.4 µM | –
10 | COC(C(=O)Nc1ccnn1C1CCN(Cc2cnn(C(C)C)c2)CC1)c1ccccc1 (stereo not drawn) | inconclusive: 29.1 µM [rising, partial curve, poor fit] | –
11 | COc1cccc(NC(=O)CN(C)C(=O)c2cc(S(=O)(=O)Nc3ccccc3OC)ccc2C)c1 | – | inactive: 13.6%
12 | CC(=O)c1cccc(NC(=O)[C@H](Cc2ccccc2)N2Cc3ccccc3C2=O)c1 | – | inactive: -0.342%
13 | C=CCn1c(CNC(=O)c2cccs2)nnc1SCC(=O)c1ccc(Br)cc1 | active: 14.6 µM | –
14 | O=C1CCc2cc(S(=O)(=O)Nc3ccccc3F)ccc2N1 | inconclusive: 18.4 µM [cytotoxic, partial curve, poor fit] | –
15 | CCCNC(=O)C12CCC(C)(c3nc4cc(C)c(C)cc4nc31)C2(C)C (stereo not drawn) | – | inactive: -17.8%
16 | Cc1ccccc1NC(=O)C1=CC=CN2CCS(=O)(=O)N=C12 | inconclusive: 23.1 µM [rising, single point] | –
17 | COc1cc(NC(=O)c2cnc(N)o2)cc(C(=O)Nc2cccc(C(F)(F)F)c2)c1 | inactive | –
18 | Cc1cccc(CN2CCN([C@@H]3CS(=O)(=O)N[C@H]3COCc3ccccc3)CC2)c1 | – | inactive: 16.3%
19 | COc1ccc(CCNC(=O)c2ccc3c(c2)N=C(C)c2cc(C)ccc2S3)cc1OC | – | inactive: -22.8%
20 | Cc1cc(C)c(C#N)c(N2CCOCC2)n1 | inconclusive: 23.1 µM [rising, single point] | –
21 | CC(=O)c1cccc(NC(=O)CCn2c(=O)oc3ccccc32)c1 | inconclusive: 23.1 µM [cytotoxic, single point] | –
22 | O=C(CCC1CCCN(C(=O)c2cc(F)ccc2F)C1)N1CCN(c2ccccn2)CC1 (stereo not drawn) | inconclusive: 29.1 µM [cytotoxic, single point] | –
23 | COc1ccc(-c2nc3ccccc3o2)cc1NC(=O)C(C)(C)Oc1ccc(Br)cc1 | inconclusive: 23.1 µM [cytotoxic, partial curve, poor fit] | –

Row | SMILES | Potency | activity change, negative = cytotoxicity
24 | Cc1c(O)c2c3c(cccc3c1O)C(=O)N(c1ccccc1)C2=O | inconclusive: 18.4 µM [cytotoxic, partial curve, poor fit] | –
25 | O=C(/C=C/c1ccccc1Cl)N(Cc1ccccc1)C1CCS(=O)(=O)C1 (stereo not drawn) | – | inactive: 0%
26 | Cc1ccc2c(c1)N(CC(=O)N1CCCCCC1)C(=O)CO2 | inconclusive: 8.2 µM [cytotoxic, partial curve, poor fit] | –
27 | CCC(C)(C)NC(=O)C(c1ccc(F)cc1)N(Cc1ccco1)C(=O)c1snc(C(N)=O)c1N (stereo not drawn) | inconclusive: 7.31 µM [cytotoxic, partial curve] | –
28 | Cc1cc(C)cc(N(CC(=O)NCc2ccco2)S(=O)(=O)c2ccccc2)c1 | inconclusive: 13 µM [cytotoxic, partial curve, poor fit] | –
29 | Nc1nc(Nc2ccccc2F)nc(NCCO)c1[N+](=O)[O-] | inconclusive: 6.51 µM [rising, partial curve] | –
30 | COc1ccc(C(=O)Nc2c(O)ccc3ccccc23)cc1OC | – | inactive: -3.63%
31 | CCOc1ccc(NC(=O)CSC2=Nc3ccccc3C3=NC(CCC(=O)NCc4cccs4)C(=O)N23)cc1 (stereo not drawn) | – | inactive: -15.4%
32 | COc1ccc(CN2CC(C(=O)NCCCN3CCCCCC3)CC2=O)cc1 (stereo not drawn) | inconclusive: 8.2 µM [rising, partial curve, poor fit] | –
33 | Cc1ccc(CNC(=O)CCS(=O)(=O)c2ccc3c(c2)CC(C)N3C(=O)C2CC2)cc1 (stereo not drawn) | – | inactive: 6.27%
34 | C=CCNc1nc(NCc2ccccc2)c(C#N)c2c1CN(C)CC2 | inconclusive: 29.1 µM [cytotoxic, single point] | –
35 | O=C(NCCCSc1ccccc1)c1ccc(=O)[nH]c1 | inconclusive: 16.4 µM [rising, single point] | –
36 | Cc1ccc(C(=O)COC(=O)c2nc3nccc(C)n3n2)c(C)c1 | inconclusive: 2.06 µM [rising, full curve, poor fit] | –
37 | CCN(CC(=O)NCc1cccs1)C(=O)CCC(=O)c1ccc(C)cc1 | inconclusive: 16.4 µM [cytotoxic, single point] | –
38 | CC(C)Cc1nc2oc3c(NCc4cccnc4)ncnc3c2c2c1CCC2 | inconclusive: 17.8 µM [cytotoxic, single point] | –
39 | CCCc1cnc(N2CCN(C(=O)c3c(-c4ccccc4)noc3C)CC2)nc1 | inconclusive: 18.4 µM [cytotoxic, single point] | –
40 | Cc1c(C(=O)NCc2ccoc2)oc2ccc3c(c12)C(=O)CC(C)(C)O3 | active: 18.4 µM | –
41 | CCN1CCN(c2ncc(C(=O)N3CCN(c4ccccc4OC)CC3)c3ccccc23)CC1 | – | inactive: -10%
42 | O=C(COC(=O)c1ccc2[nH]c3c(c2c1)CCCC3)Nc1ccccc1Cl | – | inactive: 1.28%
43 | COc1ccc(C(C)=O)cc1CSc1nnc(Nc2ccc(C)cc2)s1 | inconclusive: 4.11 µM [cytotoxic, partial curve] | –
44 | CCN(CC)S(=O)(=O)c1ccc(N2CCOCC2)c(NC(=O)c2[nH]c(C)c(C(C)=O)c2C)c1 | inconclusive: 8.2 µM [cytotoxic, partial curve, poor fit] | –
45 | CC(C)(C)c1ccc(OCC(=O)N/N=C/c2cc(Br)ccc2OC(=O)c2ccco2)cc1 | active: 7.31 µM | –
46 | CSc1nc(C(=O)N2CCCC(Nc3ccc(C)c(C)c3)C2)cs1 (stereo not drawn) | inconclusive: 14.6 µM [cytotoxic, single point] | –

A section from further up, for reference:
Row | SMILES | Potency | activity change, negative = cytotoxicity
30 | COc1ccc(C(=O)Nc2c(O)ccc3ccccc23)cc1OC | – | inactive: -3.63%
31 | CCOc1ccc(NC(=O)CSC2=Nc3ccccc3C3=NC(CCC(=O)NCc4cccs4)C(=O)N23)cc1 (stereo not drawn) | – | inactive: -15.4%
32 | COc1ccc(CN2CC(C(=O)NCCCN3CCCCCC3)CC2=O)cc1 (stereo not drawn) | inconclusive: 8.2 µM [rising, partial curve, poor fit] | –

Following part

Row | SMILES | Potency | activity change, negative = cytotoxicity
47 | COc1ccccc1N1CCN(C(=O)c2ccccc2SCC(=O)NCc2ccco2)CC1 | inconclusive: 8.2 µM [cytotoxic, partial curve] | –
48 | CC(CNC(=O)c1nnc(Cc2cccc(F)c2)o1)c1ccccc1 (stereo not drawn) | – | inactive: 0%
49 | Cc1ccccc1SCC(=O)N1CCN(c2ccc(C(F)(F)F)cn2)CC1 | inconclusive: 18.4 µM [cytotoxic, single point] | –
50 | CCC/C(=N\NC(=O)c1ccco1)c1ccc(Cl)s1 | – | inactive: -2.38%
51 | N#Cc1c(-c2ccccc2)nc(-c2cccnc2)[nH]c1=O | inconclusive: 14.6 µM [rising, single point] | –
52 | COc1cc(/C=C/c2nc3ccccc3c(=O)[nH]2)ccc1O | inconclusive: 29.1 µM [cytotoxic, single point] | –
53 | Cc1onc(-c2c(F)cccc2Cl)c1C(=O)Nc1cccc2nsnc12 | active: 18.4 µM | –
54 | Cc1ccc(NC(=O)C(NCc2ccccn2)c2ccccc2)cc1 (stereo not drawn) | inconclusive: 16.4 µM [cytotoxic, single point] | –
55 | C/C(=N\NC(=S)NC(C)C)c1ccccc1OC(F)F | inconclusive: 16.4 µM [cytotoxic, single point] | –
56 | Cc1nn(Cc2ccccc2)c(C)c1C(=O)NCCN1C(=O)S/C(=C\c2ccccc2)C1=O | inconclusive: 9.2 µM [cytotoxic, partial curve] | –
57 | O=C(c1ccc(COc2c(F)c(F)cc(F)c2F)o1)N1CCN(c2ccccc2)CC1 | inconclusive: 16.4 µM [cytotoxic, single point] | –
58 | CCOC(=O)c1cnc(-n2nc(C)cc2C)nc1NC | inconclusive: 3.66 µM [cytotoxic, full curve] | –
59 | O=C1OC2(c3ccccc31)c1ccccc1-c1ccccc12 | inconclusive: 18.4 µM [cytotoxic, single point] | –
60 | CCCCCCC(C)NC(=S)Nc1cc(S(=O)(=O)N(C)C)ccc1C (stereo not drawn) | inconclusive: 11.6 µM [cytotoxic, partial curve] | –
61 | Cc1nc(NC(=O)COC(=O)C2CC2C)c(Cl)cc1Cl (stereo not drawn) | – | inconclusive: 34.6%
62 | CCOc1ccccc1N(CC(=O)Nc1ccc(S(=O)(=O)N2CCOCC2)cc1)S(=O)(=O)c1ccccc1 | inconclusive: 5.8 µM [cytotoxic, partial curve] | –
63 | Cn1c(SCC(=O)Nc2cccc(Br)c2)nnc1-c1cc2ccccc2o1 | active: 16.4 µM | –
64 | Cc1ccccc1-c1noc(-c2ccccc2C(=O)N2CCCC2)n1 | inconclusive: 11.6 µM [cytotoxic, partial curve] | –
65 | CCCCNc1nc(N)nc(-c2cc(Cl)ccc2O)n1 | active: 11.6 µM | –
66 | O=C(Oc1cccccc1=O)c1ccccc1 | inconclusive: 32.6 µM [cytotoxic, single point] | –
67 | Cc1ccccc1Nc1c([N+](=O)[O-])ccc2c1=NC1(CCCCC1)N=2 | – | inconclusive: -38.1%
68 | CCc1ccc(C(=O)NC(=S)Nc2ccccc2N2CCOCC2)cc1 | inconclusive: 7.31 µM [cytotoxic, partial curve] | –
